These results are taken from publication PMC12604490, “Dual immunomodulatory and antileishmanial potential of TLR7/8 agonists against Leishmania donovani” (Infection and Immunity, 2025).

Data set [1] concerns HeLa cells. Description: Cytotoxicity on HeLa cells (MTT, 48 h). Format: cell-based, human. Conditions: for HeLa cell SI (antiamastigote): CC50 HeLa / IC50 amastigotes; for HeLa cell SI (antipromastigote): CC50 HeLa / IC50 promastigotes. As to the method:
HeLa cells (human cervical epithelial cell line) were grown in RPMI-1640 (HiMedia) with 10% FBS and cultured at 37°C (5% CO2). The cells were evaluated daily using an inverted microscope for any contamination and subcultured after reaching confluency ([21]).
(§1) The cytotoxicity studies were performed using an immune cell line (RAW 264.7 macrophage) and non-immune epithelial cell line (HeLa) by 3-(4,5-dimethylthiazol-2-yl)-2,5-diphenyltetrazolium bromide (MTT) assay. A total of 7,000–10,000 cells/well were supplemented with different concentrations (2–64 μg/mL) of TLR7/8 agonists and incubated for 48 hours. MTT (1 mg/mL) (Hi-Media) was added to each well and kept for 4 hours. The formazan crystals formed were dissolved in 100 µL of dimethyl ulfoxide (DMSO), and absorbance at 550 nm was recorded using a microreader. AmB, MF, and Resiquimod were used as reference drugs. The percentage of cytotoxicity was calculated as [(absorbance of treated well − absorbance of blank) / (absorbance of untreated well − absorbance of blank)] × 100. The CC50 value was calculated with SPSS software. The SI of TLR7/8 agonists was obtained by calculating the ratio of CC50 (RAW 264.7 macrophage and HeLa cells) and IC50 (antipromastigote and antiamastigotes) ([21], [23]).

In data set [2] the test system is RAW 264.7 macrophages. The data set is described as follows: Cytotoxicity on RAW 264.7 macrophages (MTT, 48 h). Conditions: for RAW macrophage SI (antiamastigote): CC50 RAW 264.7 / IC50 amastigotes; for RAW macrophage SI (antipromastigote): CC50 RAW 264.7 / IC50 promastigotes. Format: cell-based. Here is the method: To evaluate the cytotoxicity and antiamastigote assay, RAW 264.7 macrophages were cultured in Dulbecco’s modified Eagle medium (HiMedia, India), 10% heat-inactivated fetal bovine serum (FBS, Biowest) and cultured at 37°C (5% CO2). The macrophage cell growth was evaluated daily, and the cells were subcultured into a new flask containing fresh cell culture medium once they reached about 80%–90% confluency.
as §1

Regarding `CCCCc1nc2c(N)nc3ccccc3c2n1CC(C)C` [compound 1], in data set [1], the “HeLa cell SI (antiamastigote)” value is 1.36 and the “HeLa cell SI (antipromastigote)” value is 2.21. Also, in data set [2], the “RAW macrophage SI (antiamastigote)” value was 1.76 and the “RAW macrophage SI (antipromastigote)” value worked out at 2.8.
Turning to `CCCCc1nc2c(N)nc3ccccc3c2n1Cc1ccc(O)c(O)c1` [compound 5], in data set [1], the “HeLa cell SI (antiamastigote)” value was 9.87 and the “HeLa cell SI (antipromastigote)” value is recorded as 14.25. Moreover, in data set [2], the “RAW macrophage SI (antiamastigote)” value stood at 10.45 and the “RAW macrophage SI (antipromastigote)” value came out at 15.08.
Turning to `CCCCn1cc2c(n1)c(N)nc1ccccc12` [compound 11], in data set [1], the “HeLa cell SI (antiamastigote)” value stood at 0.7 and the “HeLa cell SI (antipromastigote)” value turned out to be 1. Moreover, in data set [2], the “RAW macrophage SI (antiamastigote)” value was found to be 1.01 and the “RAW macrophage SI (antipromastigote)” value came out at 1.44.
For the compound `CCCCNC(=O)c1ccc(Cn2c(CCCC)nc3c(N)nc4ccccc4c32)cc1` [compound 3], in data set [1], the “HeLa cell SI (antiamastigote)” value turned out to be 0.94 and the “HeLa cell SI (antipromastigote)” value is 1.28. In data set [2], the “RAW macrophage SI (antiamastigote)” value is recorded as 1.38 and the “RAW macrophage SI (antipromastigote)” value was determined as 1.87.
In the case of `CCCCc1nc2c(N)nc3ccccc3c2n1Cc1ccc(Cl)cc1` [compound 2], in data set [1], the “HeLa cell SI (antiamastigote)” value is on record as 0.68 and the “HeLa cell SI (antipromastigote)” value is given as 1.08. Also, in data set [2], the “RAW macrophage SI (antiamastigote)” value came to 1.02 and the “RAW macrophage SI (antipromastigote)” value amounted to 1.61.
On the same counts, the results for `CCCCc1nc2c(N)nc3ccccc3c2n1Cc1ccc(CNC(=O)OC(C)(C)C)cc1` [compound 7] are 0.86, 1.12, 1.21 and 1.64.
Regarding `CCCCc1nc2c(N)nc3ccccc3c2n1Cc1ccc(C(N)=O)cc1` [compound 6], in data set [1], the “HeLa cell SI (antiamastigote)” value was determined as 0.64 and the “HeLa cell SI (antipromastigote)” value is recorded as 0.89. In data set [2], the “RAW macrophage SI (antiamastigote)” value turned out to be 0.94 and the “RAW macrophage SI (antipromastigote)” value is on record as 1.31.
On to `CCCCc1nc2c(N)nc3ccccc3c2n1Cc1cccc(CNC(=O)OC(C)(C)C)c1` [compound 8], for which, in data set [1], the “HeLa cell SI (antiamastigote)” value was determined as 2.83 and the “HeLa cell SI (antipromastigote)” value amounted to 2.02. In addition, in data set [2], the “RAW macrophage SI (antiamastigote)” value was 3.12 and the “RAW macrophage SI (antipromastigote)” value was 4.38.
